Library screen at single concentrations

The chains behind the UniProt entries cited, without tags or fusion partners. Residues count along the entry.
UniProt I6X8D2, whole entry: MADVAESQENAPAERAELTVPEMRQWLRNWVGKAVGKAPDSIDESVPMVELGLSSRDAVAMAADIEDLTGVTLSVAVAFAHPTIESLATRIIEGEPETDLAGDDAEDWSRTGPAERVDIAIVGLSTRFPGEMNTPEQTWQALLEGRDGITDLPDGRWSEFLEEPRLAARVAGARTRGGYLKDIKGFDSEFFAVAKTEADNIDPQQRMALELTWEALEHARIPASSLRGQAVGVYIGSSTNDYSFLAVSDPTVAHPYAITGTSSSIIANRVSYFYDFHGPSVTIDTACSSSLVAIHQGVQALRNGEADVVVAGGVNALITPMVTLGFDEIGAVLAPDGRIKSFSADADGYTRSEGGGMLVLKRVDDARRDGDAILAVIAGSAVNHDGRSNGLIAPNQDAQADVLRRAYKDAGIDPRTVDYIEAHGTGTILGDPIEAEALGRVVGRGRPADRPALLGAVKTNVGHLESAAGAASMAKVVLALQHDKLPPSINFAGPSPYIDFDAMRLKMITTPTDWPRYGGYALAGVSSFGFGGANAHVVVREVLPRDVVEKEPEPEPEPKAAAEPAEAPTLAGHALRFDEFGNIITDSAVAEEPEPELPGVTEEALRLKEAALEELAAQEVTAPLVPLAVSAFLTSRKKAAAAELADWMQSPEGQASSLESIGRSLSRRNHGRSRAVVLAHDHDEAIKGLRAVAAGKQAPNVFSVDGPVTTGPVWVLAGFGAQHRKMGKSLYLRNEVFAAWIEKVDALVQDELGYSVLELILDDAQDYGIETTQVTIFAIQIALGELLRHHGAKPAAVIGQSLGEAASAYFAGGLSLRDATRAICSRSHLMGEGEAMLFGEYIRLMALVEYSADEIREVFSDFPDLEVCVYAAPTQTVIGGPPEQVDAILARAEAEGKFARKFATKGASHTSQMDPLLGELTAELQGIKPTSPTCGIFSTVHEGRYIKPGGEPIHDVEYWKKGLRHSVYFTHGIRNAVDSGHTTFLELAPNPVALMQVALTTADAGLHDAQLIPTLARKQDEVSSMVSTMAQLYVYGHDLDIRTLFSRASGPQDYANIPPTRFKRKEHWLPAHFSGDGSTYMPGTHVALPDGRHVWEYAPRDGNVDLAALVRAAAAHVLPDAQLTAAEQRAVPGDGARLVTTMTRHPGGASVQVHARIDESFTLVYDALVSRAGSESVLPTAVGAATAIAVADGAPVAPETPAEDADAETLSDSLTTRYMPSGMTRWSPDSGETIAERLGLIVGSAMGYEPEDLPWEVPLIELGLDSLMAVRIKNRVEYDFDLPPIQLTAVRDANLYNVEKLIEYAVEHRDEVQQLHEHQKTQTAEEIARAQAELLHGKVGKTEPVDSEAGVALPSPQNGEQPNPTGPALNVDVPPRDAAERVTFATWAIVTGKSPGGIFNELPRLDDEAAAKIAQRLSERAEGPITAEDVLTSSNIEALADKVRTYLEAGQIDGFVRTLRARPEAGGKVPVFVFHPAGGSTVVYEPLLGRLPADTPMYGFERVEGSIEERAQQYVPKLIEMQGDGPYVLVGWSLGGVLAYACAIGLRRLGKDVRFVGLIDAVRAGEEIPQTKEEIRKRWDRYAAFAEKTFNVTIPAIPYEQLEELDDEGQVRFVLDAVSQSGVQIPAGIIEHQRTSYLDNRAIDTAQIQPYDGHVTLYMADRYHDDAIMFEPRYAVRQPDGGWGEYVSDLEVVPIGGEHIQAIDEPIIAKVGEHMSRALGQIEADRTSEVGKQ
UniProt P9WNZ1, whole entry: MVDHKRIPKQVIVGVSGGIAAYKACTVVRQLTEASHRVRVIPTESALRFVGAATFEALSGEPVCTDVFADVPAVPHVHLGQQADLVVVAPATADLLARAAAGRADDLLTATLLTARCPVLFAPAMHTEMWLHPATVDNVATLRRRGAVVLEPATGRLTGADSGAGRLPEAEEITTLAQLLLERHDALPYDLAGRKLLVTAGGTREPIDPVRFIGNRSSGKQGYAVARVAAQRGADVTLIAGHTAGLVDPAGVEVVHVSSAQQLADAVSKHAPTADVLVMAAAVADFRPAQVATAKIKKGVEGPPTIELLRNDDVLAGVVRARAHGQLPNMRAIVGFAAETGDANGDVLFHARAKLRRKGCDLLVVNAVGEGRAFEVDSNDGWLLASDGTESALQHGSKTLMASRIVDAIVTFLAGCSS
UniProt P9WFT3, whole entry: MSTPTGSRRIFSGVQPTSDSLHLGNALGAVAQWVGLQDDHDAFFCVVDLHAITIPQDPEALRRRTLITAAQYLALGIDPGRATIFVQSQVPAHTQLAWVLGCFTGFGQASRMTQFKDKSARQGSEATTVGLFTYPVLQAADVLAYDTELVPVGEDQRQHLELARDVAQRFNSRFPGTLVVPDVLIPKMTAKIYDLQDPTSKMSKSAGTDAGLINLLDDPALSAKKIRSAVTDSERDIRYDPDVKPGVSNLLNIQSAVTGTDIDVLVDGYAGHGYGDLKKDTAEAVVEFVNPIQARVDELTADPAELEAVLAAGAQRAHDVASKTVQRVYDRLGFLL
UniProt A4I591, 1-473: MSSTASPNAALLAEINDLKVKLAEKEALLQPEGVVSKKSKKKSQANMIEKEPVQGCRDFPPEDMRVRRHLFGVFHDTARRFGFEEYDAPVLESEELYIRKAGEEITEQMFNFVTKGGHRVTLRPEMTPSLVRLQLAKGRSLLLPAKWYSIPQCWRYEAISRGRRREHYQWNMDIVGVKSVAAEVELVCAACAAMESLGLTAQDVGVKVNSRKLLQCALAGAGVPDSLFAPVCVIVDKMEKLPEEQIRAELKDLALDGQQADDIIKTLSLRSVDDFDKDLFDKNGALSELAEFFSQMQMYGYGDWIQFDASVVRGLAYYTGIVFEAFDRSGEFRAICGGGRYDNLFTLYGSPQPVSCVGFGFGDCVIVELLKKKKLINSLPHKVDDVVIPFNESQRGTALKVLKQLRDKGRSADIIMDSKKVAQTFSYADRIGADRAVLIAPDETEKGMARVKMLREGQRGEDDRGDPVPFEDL
UniProt Q4DA54, 1-478: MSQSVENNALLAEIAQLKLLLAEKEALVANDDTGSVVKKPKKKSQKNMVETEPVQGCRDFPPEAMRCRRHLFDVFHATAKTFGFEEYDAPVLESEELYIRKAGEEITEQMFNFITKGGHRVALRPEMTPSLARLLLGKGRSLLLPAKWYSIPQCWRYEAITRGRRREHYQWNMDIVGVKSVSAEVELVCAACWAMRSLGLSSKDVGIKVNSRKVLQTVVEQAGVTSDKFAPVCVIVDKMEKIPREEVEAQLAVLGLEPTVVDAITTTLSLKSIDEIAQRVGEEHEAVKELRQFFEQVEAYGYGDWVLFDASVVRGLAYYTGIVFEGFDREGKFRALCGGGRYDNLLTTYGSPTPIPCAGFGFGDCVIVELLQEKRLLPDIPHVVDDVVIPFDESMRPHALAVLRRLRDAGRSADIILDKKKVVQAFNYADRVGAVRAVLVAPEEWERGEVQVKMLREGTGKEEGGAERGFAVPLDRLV

From ChEMBL document CHEMBL3988442, “University of Dundee, Small-Polar-MMV Screening Library” (2021).

Pks13 thioesterase: 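Polyketide synthase Pks13, Mycobacterium tuberculosis (UniProt I6X8D2). Enzyme assay of the thioesterase domain of polyketide synthase 13; the read-out is not stated. Concentration: 30 µM. The record gives no direction; the compounds picked for IC50 retests had high values, so higher reads as stronger inhibition. Size under these conditions: about 67,000 compounds, about 300 of them at 50% or above in at least one test.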
Toxoplasma: 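Assay of Toxoplasma gondii numbers, read through their beta-galactosidase reporter with a colour substrate. Tested at 10 µM. Higher reads as fewer parasites (inferred from which compounds were picked for retests). Size under these conditions: about 67,000 compounds, about 260 of them at 50% or above in at least one test.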
CoaBC: 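Coenzyme A biosynthesis protein CoaBC, Mycobacterium tuberculosis (UniProt P9WNZ1). Enzyme assay of CoaBC with a phosphate dye (Biomol Green) read at 650 nm. Compounds at 30 µM. Direction is inferred from only a few compounds that gave an IC50; most scored high, so higher reads as stronger inhibition. Most strong results did not repeat in a second test. Size under these conditions: about 67,000 compounds, about 40 of them at 50% or above in at least one test.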
MtTrpRS: 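Tryptophan-tRNA ligase, Mycobacterium tuberculosis (UniProt P9WFT3). Enzyme assay of tryptophanyl-tRNA synthetase; the read-out is not stated. Compounds at 10 µM. Higher most likely means stronger inhibition; the record gives no direction and few retests gave an IC50. Of about 65,000 compounds tested this way, about 64 (0.098%) reached 50% or more in at least one test.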
LiHisRS: 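Enzyme assay of histidyl-tRNA synthetase; the read-out is not stated. Target: Histidine-tRNA ligase, Leishmania infantum (UniProt A4I591). Compounds at 30 µM. The record gives no direction; compounds that gave an IC50 in retests scored well above the rest, so higher reads as stronger inhibition. The assay is labelled LdHisRS but filed under L. infantum. Of about 69,000 compounds tested this way, about 410 (0.6%) reached 50% or more in at least one test.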
TcHisRS: 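Histidine-tRNA ligase, Trypanosoma cruzi CL Brener (UniProt Q4DA54). Enzyme assay of histidyl-tRNA synthetase; the read-out is not stated. Tested at 30 µM. Higher reads as stronger inhibition (inferred: compounds with an IC50 in retests scored well above the rest). Size under these conditions: about 69,000 compounds, about 31 of them at 50% or above in at least one test.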

Values are the deposited “Percent Effect”, in %.
The record does not define 0% and 100%; most values in the screen are far below 50% and negative numbers occur (in some assays of this library far below -100).
The compounds are a random part of those screened.

For CN1CCN(C2COC3(CCN(Cc4cccs4)CC3)C2)CC1 (stereo not drawn) the result was Pks13 thioesterase: -7.538%; CoaBC: -2%; MtTrpRS: -2.346%; LiHisRS: 18%; TcHisRS: 11.76%. With COC(=O)CNCC1(O)CCCN(Cc2cccc(F)c2F)C1=O (stereo not drawn) the screen gave Pks13 thioesterase: -19.25%; Toxoplasma: -5.831%; CoaBC: -6.25%; MtTrpRS: -2.22%; LiHisRS: 6.061%; TcHisRS: 2.174%. Result for CCN1CCCc2cc(-c3cncn3C(C)CN3CCOCC3)ccc21 (stereo not drawn) was Pks13 thioesterase: 0.5852%; CoaBC: 11.17%; MtTrpRS: -3.039%; LiHisRS: 28.37%; TcHisRS: 10.85%. Result for COc1ccccc1NC(=O)c1ccc(C)n1C was Pks13 thioesterase: -9.374%; CoaBC: 4.253%; MtTrpRS: -2.412%; LiHisRS: 21.74%; TcHisRS: 2.97%. O=C1NCCN(CC2CC2)C12CCN(Cc1ccc3c(c1)OCO3)CC2 gave Pks13 thioesterase: -20.23%; Toxoplasma: 38.07%; CoaBC: -3.99%; MtTrpRS: 15.82%; LiHisRS: -5.882%; TcHisRS: -1.639%. COC(=O)CCNC(=O)c1cnc(Cc2ccc(F)cc2)s1 read Pks13 thioesterase: 3.968%; Toxoplasma: -2.791%; CoaBC: -7.025%; MtTrpRS: 2.39%; LiHisRS: 16.96%; TcHisRS: 11.67%. With O=C(c1ccccc1)N1C[C@@H]2CC[C@H](C1)N(C(=O)CN1CCOCC1)C2 the screen gave Pks13 thioesterase: -38.49%; CoaBC: -6.695%; MtTrpRS: 1.847%; LiHisRS: 0%; TcHisRS: -2.041%. With CCCS(=O)(=O)c1ncc(CN2CCC(CO)CC2)n1CC1CCCO1 (stereo not drawn) the screen gave Pks13 thioesterase: -6.281%; Toxoplasma: 3.838%; CoaBC: -6.329%; MtTrpRS: -4.55%; LiHisRS: 4.808%; TcHisRS: 8.13%.

Result for COCCNC(=O)Cn1cc(NC(=O)c2cccc(Cl)c2Cl)cn1 was Pks13 thioesterase: -41.67%; Toxoplasma: 2.411%; CoaBC: 0.8872%; MtTrpRS: 2.449%; LiHisRS: 21.52%; TcHisRS: 0.431%. For Cn1cc(CNc2ncnc3c2CCN(Cc2ccsc2)CC3)cn1 the result was Pks13 thioesterase: -18.82%; Toxoplasma: -3.304%; CoaBC: 6.25%; MtTrpRS: -1.599%; LiHisRS: 16.5%; TcHisRS: -0.4149%. For CCS(=O)(=O)N1CCCC2(COCCN(c3cnccn3)C2)C1.O=C(O)C(F)(F)F (stereo not drawn) the result was Toxoplasma: 11.45%. For O=C(O)C(F)(F)F.O=C(O)C(F)(F)F.c1cncc(C2COC3(CCN(Cc4cccs4)CC3)C2)c1 (stereo not drawn) the result was Toxoplasma: 15.82%. For O=C(O)C(F)(F)F.[H][C@@]12OCCN(CC3CC3)[C@@]1([H])CC[C@H]2OCC1CCOCC1 the result was Toxoplasma: 10.61%. Cc1nnc2n1CCN(c1nn3cc(C(C)(C)C)nc3s1)C2 read Pks13 thioesterase: -31.06%; Toxoplasma: 5.324%; CoaBC: 7.589%; MtTrpRS: -1.754%; LiHisRS: 6.25%; TcHisRS: 4.972%. With Cn1ncc2c(N3CCN4CCCCC4C3)nc(C3CCCC3)nc21 (stereo not drawn) the screen gave Pks13 thioesterase: -14.12%; Toxoplasma: -9.455%; CoaBC: 12.44%; MtTrpRS: 1.119%; LiHisRS: -5.319%; TcHisRS: 3.015%.